Source: paper PMC10626418

Biological target: recombinant murine I-E^k refolded with a cleavable placeholder peptide (I-E^k/ANP 2x6His) (mouse)
Assay: spectrophotometry after peptide exchange (280 to 488 or 555 or 640 nm ratio); placeholder peptide of refolded I-E^k exchanged for the dye-conjugated peptide under acidic conditions (pH 5.1, 0.2 M citric acid buffer) over 3 days; both purified

binding: binds
Binder: HPPHIEIQMLKNGKKIPGGSC (C-terminal cysteine conjugated with an Alexa Fluor maleimide dye) [β2m endogenous peptide with C-terminal GGSC linker, fluorophore-conjugated]

Results are given in words; binding and its absence hold for the method and conditions named. Binding can be weak; no strength is given.
